Data as given in PubChem BioAssay AID652259 (Drosophila RNAi Screening Center, 2013)
Assay: 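Identify new Wingless signalling regulators in fly cells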 (primary screen). System: Drosophila clone 8 imaginal disc epithelial cells. Knock-down reagent: long dsRNA against Drosophila genes. Challenge: pathway stimulated by co-transfected Wingless expression plasmid. Detection: 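Dual luciferase reads per well after Wingless plasmid stimulation: reporter firefly light and Renilla control light; activity is firefly divided by Renilla, a ratio not deposited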. Scale: firefly reporter light: higher = more Wg reporter light, before normalisation; Renilla control light: higher = more transfected or surviving cells. Active means: 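a knock-down is a candidate when at least two out of four statistical tests show it departing from its plate mean; one test alone signals a weak candidate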. Calls: active = candidate regulator (raises or lowers reporter); inactive = not a candidate.
In all, the deposit lists about 22,000 reagents; below is an unselected part of those with a known target gene and a result. In the full data, 233 (1.1%) were called active. 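Light values are raw, unnormalised plate reads; the ratio scores behind the reporter calls were not deposited.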 A plus sign joins genes that one reagent is predicted to hit. Not stated in the record: the amount of reagent, the time to read-out, the dose of the treatment.

The opening 3 entries, to show the layout:
"reporter change call, replicate 1","firefly reporter light, replicate 1","firefly reporter light, replicate 2","Renilla control light, replicate 1","Renilla control light, replicate 2",activity call,Target gene,amplicon
,2093,5636,800,2037,inactive,PlexA (Plexin A),DRSC17220
,2480,,1280,,inactive,alpha-Est7 (alpha-Esterase-7),DRSC12619
,3442,8725,1275,3216,inactive,snRNP-U1-70K (small ribonucleoprotein particle U1 subunit 70K),DRSC03612

The listing, from the first entry:
"reporter change call, replicate 1","firefly reporter light, replicate 1","firefly reporter light, replicate 2","Renilla control light, replicate 1","Renilla control light, replicate 2",activity call,Target gene,amplicon
,2093,5636,800,2037,inactive,PlexA (Plexin A),DRSC17220
,2480,,1280,,inactive,alpha-Est7 (alpha-Esterase-7),DRSC12619
,3442,8725,1275,3216,inactive,snRNP-U1-70K (small ribonucleoprotein particle U1 subunit 70K),DRSC03612
,5.83e5,5.68e5,1.19e5,1.48e5,inactive,snRNP-U1-70K (small ribonucleoprotein particle U1 subunit 70K),DRSC22071
,2724,5622,842,3312,inactive,CG14535,DRSC02393
,3632,,1563,,inactive,CG32189,DRSC09511
,5613,,2128,,inactive,Cdc37 (Cell division cycle 37),DRSC08648
,18288,,8699,,inactive,rictor (rapamycin-insensitive companion of Tor),DRSC20071
,3156,4512,1152,1437,inactive,CG13605,DRSC14608
,13256,,4041,,inactive,CG33332,DRSC15504
,15386,,3605,,inactive,CG12347,DRSC14502
,8264,,1632,,inactive,Osi16 (Osiris 16),DRSC12135
,5.32e5,6.36e5,2.88e5,2.73e5,inactive,Osi16 (Osiris 16),DRSC21323
,3597,10124,1289,4976,inactive,stas (Stasimon),DRSC20104
,3632,,1069,,inactive,CG43133,DRSC19231
,2806,6269,1160,2259,inactive,CG10803,DRSC17763
,4860,,2235,,inactive,smg (smaug),DRSC11397
,16213,6.87e5,5075,3.35e5,inactive,CG44098,DRSC12214
,7858,,2825,,inactive,CG44098,DRSC12240
,16983,,5120,,inactive,CG44098,DRSC12327
,10504,,4210,,inactive,CG12128 + CG1407,DRSC06446
,3126,6681,1506,3681,inactive,CG2246,DRSC15433
,5317,,1968,,inactive,CG7639,DRSC07026
Wg reporter activity raised,79395,,5744,,active,CG43736,DRSC18370
,31433,,11605,,inactive,CG43736,DRSC18371
,18496,,5200,,inactive,Det (Deterin),DRSC14489
,3309,11168,820,3589,inactive,CG16772,DRSC02516
,15286,,5917,,inactive,CG11180,DRSC06055
,3563,4440,1333,1504,inactive,CG7029,DRSC16177
,3253,10721,1602,5185,inactive,CG15254,DRSC01870
,3.13e5,3.90e5,1.69e5,1.69e5,inactive,CG15254,DRSC21765
,9125,,3732,,inactive,nw (narrow),DRSC06451
,17008,,4453,,inactive,nw (narrow),DRSC06749
,4341,,1835,,inactive,nw (narrow),DRSC06896
,3497,,1703,,inactive,Tpl94D (Transition protein-like 94D),DRSC13593
,30727,8.08e5,12841,4.38e5,inactive,CG3036,DRSC00260
,18503,,4989,,inactive,CG3036,DRSC00562
,3028,4137,838,2411,inactive,CdGAPr (Cd GTPase activating protein-related),DRSC03289
,9976,,2948,,inactive,CG4278,DRSC02741
,17490,,3920,,inactive,CG11600,DRSC14332
,14437,,3789,,inactive,indra,DRSC08558
,3074,,1819,,inactive,CG45263,DRSC12682
,18885,,2901,,inactive,CG45263,DRSC14357
,12365,,3217,,inactive,CG45263,DRSC14360
,17084,,3447,,inactive,CG45263,DRSC14361
,9915,,3248,,inactive,CG45263,DRSC14363
,2666,5063,898,2314,inactive,CG4438,DRSC02746
,3143,7932,1036,3888,inactive,CG13272,DRSC02249
,4.86e5,5.43e5,2.10e5,20918,inactive,CG13272,DRSC22910
